The results in this text go back to patent US7348407.

By UniProt entry, the sequences of proteins in these tests, tags left out. Residues count along the entry.
UniProt B2RWS6, residues 2-2412: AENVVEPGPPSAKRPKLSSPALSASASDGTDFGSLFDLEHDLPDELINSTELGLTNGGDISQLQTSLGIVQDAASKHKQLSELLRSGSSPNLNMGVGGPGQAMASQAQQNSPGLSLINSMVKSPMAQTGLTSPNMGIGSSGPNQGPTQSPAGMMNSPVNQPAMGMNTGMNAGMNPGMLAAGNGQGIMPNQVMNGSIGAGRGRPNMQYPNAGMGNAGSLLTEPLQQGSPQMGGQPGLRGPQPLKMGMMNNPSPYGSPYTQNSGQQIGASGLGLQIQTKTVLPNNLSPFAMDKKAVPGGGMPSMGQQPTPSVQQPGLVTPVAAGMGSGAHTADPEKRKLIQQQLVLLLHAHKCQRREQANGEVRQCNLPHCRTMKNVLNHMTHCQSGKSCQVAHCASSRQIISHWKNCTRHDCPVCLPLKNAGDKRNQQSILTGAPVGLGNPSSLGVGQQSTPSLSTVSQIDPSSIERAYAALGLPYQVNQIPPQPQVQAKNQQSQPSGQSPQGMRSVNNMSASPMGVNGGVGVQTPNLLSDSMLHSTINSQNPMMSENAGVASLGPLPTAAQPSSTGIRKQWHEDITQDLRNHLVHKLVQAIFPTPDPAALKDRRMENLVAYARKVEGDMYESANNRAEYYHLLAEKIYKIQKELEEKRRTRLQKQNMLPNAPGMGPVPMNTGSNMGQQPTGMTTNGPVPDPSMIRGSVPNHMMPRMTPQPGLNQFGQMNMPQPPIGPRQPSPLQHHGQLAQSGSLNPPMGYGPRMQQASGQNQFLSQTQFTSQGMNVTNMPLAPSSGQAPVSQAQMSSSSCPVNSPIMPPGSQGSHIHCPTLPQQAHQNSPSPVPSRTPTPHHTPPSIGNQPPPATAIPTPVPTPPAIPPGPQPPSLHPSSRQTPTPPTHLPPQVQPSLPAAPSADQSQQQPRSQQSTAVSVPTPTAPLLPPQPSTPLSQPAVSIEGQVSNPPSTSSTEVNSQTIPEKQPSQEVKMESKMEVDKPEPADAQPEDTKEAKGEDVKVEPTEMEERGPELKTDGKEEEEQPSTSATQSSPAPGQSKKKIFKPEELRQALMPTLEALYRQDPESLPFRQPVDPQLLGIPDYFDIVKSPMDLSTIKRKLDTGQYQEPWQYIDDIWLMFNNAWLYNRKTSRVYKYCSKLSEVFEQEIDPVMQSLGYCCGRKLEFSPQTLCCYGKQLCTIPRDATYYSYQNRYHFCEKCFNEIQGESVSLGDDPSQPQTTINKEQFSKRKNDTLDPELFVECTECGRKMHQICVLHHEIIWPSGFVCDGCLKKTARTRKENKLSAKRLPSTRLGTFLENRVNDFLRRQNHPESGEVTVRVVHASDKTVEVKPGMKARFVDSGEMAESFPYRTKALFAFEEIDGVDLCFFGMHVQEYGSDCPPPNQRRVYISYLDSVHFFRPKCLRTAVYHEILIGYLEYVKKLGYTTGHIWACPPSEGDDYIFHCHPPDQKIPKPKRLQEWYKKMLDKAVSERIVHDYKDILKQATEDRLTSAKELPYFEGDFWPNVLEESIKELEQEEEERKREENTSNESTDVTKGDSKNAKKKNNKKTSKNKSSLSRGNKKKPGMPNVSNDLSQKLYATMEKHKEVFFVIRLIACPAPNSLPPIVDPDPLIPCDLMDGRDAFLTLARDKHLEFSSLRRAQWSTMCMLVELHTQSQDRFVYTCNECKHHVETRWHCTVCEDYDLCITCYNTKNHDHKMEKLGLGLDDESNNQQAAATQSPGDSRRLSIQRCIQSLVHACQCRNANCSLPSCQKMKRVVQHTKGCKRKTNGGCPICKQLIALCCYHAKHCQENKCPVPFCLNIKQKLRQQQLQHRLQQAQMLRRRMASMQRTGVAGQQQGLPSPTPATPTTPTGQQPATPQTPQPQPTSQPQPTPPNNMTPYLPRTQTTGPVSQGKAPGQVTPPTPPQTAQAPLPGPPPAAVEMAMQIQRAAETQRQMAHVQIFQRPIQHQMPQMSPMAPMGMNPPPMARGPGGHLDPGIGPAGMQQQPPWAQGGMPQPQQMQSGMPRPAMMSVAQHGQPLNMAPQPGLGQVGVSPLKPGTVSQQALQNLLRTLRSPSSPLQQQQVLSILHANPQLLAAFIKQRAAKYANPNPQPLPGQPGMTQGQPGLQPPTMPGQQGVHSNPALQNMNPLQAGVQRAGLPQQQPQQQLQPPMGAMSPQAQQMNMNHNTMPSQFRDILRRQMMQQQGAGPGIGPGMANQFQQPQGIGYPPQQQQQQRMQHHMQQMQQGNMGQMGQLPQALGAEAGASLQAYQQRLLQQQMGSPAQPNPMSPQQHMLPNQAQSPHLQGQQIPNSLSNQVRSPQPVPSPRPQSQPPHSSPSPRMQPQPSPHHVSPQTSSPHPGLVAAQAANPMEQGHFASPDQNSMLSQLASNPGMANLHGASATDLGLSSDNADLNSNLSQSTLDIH
UniProt Q09472: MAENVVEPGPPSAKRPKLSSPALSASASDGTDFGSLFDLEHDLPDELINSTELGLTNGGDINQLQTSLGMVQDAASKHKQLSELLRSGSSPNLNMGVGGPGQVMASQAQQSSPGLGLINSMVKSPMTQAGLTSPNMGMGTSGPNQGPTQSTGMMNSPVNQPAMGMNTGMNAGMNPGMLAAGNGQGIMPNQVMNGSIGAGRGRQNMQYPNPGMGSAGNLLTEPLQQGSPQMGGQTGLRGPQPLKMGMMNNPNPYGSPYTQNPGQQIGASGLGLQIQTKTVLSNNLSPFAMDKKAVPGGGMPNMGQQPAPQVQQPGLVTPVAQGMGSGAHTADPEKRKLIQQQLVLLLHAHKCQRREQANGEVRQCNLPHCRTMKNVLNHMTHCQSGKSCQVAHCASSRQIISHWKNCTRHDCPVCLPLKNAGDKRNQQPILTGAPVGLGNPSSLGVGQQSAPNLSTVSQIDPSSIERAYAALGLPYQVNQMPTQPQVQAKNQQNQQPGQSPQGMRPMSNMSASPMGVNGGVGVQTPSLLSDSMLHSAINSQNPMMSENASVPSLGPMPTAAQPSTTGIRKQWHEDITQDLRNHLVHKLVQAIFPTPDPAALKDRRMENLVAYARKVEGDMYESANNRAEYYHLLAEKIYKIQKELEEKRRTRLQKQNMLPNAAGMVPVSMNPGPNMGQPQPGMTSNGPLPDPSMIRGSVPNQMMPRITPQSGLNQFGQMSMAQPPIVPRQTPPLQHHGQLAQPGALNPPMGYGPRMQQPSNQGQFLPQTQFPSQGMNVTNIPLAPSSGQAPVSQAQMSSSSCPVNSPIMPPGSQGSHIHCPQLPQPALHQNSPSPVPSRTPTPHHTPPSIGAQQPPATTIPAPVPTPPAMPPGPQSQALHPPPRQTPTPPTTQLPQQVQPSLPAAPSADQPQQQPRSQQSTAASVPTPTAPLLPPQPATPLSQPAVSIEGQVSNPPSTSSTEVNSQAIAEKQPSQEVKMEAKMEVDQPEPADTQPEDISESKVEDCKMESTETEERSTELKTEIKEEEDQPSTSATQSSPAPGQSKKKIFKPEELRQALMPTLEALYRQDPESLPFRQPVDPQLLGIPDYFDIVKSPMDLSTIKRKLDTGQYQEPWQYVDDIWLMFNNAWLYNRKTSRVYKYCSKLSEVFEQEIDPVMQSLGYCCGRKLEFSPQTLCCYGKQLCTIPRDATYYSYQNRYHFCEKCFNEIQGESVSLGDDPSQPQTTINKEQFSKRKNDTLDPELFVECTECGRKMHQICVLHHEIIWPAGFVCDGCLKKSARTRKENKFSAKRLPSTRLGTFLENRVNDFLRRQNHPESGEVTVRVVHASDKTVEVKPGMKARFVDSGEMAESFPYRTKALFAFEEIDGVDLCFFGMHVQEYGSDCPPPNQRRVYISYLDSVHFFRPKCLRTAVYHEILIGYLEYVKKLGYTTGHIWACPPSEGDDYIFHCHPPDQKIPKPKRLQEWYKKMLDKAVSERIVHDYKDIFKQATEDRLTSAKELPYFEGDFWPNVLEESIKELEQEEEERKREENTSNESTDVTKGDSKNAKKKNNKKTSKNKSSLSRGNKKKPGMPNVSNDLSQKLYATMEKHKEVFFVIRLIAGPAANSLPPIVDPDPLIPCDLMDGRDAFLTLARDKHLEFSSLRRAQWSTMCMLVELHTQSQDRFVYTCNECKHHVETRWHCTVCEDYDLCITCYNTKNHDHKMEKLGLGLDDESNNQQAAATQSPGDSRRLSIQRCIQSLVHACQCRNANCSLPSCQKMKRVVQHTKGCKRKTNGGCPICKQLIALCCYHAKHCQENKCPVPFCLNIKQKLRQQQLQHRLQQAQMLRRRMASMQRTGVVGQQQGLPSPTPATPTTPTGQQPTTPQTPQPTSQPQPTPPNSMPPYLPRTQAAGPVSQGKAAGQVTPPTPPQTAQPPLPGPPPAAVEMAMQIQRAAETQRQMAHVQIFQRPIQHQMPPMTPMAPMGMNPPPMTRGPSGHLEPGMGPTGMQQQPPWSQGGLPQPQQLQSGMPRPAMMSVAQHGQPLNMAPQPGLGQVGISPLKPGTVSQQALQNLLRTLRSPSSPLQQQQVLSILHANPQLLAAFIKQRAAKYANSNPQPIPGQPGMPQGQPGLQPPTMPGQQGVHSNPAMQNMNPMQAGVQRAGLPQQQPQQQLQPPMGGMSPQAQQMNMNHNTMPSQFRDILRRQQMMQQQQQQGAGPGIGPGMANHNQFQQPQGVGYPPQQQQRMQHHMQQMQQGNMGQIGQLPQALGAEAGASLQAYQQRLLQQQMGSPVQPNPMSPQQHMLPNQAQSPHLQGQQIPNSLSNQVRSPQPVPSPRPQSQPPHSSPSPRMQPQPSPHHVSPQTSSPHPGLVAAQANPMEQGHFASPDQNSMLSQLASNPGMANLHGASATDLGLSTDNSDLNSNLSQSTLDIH
UniProt Q9QXM1: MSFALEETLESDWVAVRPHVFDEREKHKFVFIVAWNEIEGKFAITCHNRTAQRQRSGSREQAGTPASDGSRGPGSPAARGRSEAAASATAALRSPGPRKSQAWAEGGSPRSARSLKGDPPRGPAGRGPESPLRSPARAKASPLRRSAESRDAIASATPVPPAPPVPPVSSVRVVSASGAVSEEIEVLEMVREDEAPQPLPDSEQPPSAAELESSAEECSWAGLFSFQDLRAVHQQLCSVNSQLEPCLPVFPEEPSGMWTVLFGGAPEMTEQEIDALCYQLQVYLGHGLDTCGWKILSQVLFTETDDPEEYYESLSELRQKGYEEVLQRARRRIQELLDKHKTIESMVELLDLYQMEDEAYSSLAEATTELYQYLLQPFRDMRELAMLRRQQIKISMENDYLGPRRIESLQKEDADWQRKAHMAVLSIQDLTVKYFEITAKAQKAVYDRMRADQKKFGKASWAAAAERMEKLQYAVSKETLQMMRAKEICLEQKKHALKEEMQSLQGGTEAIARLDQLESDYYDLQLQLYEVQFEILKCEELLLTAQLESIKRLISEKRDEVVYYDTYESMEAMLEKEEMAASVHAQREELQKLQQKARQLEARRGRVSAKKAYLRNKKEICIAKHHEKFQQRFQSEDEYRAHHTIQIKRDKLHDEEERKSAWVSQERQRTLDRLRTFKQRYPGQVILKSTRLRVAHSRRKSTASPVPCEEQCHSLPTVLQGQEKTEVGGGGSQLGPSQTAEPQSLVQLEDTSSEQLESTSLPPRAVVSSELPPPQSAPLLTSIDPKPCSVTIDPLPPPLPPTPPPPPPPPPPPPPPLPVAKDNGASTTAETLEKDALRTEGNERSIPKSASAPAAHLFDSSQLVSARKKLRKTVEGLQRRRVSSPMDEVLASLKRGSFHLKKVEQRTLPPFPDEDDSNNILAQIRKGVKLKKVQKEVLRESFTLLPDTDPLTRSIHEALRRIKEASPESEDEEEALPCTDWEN

Results are given in words; binding and its absence hold for the method and conditions named. Binding seen in cells or lysates may run through a third protein. Some entries that bind do so weakly or less than the wild type. For part of these data: Where a sequence is shown, tags or fusion partners need not be part of it.

Assay [1] deals with endogenous p300 in murine A31 cells (murine) (UniProt B2RWS6). Description: co-immunoprecipitation of endogenous proteins: anti-p300 immunoprecipitation, anti-STRAP immunoblot. (In western blotting, separated proteins are transferred to a membrane and probed.)
The target in assay [2] is p300 (pCMV-p300, expressed in transfected cells) (UniProt Q09472). Description: co-immunoprecipitation from transfected U2OS cells: anti-HA immunoprecipitation, anti-p300 immunoblot.
Assay [3] addresses JMY (pCMV-JMY, expressed in transfected cells) (UniProt Q9QXM1). Description: co-immunoprecipitation from transfected U2OS cells: anti-HA immunoprecipitation, anti-JMY immunoblot.

B1: endogenous STRAP in murine A31 cells (protein)
chain: MMADEEEEAKHVLQKLQGLVDRLYCFRDSYFETHSVEDAGRKQQDVQEEMEKTLQQMEEVLGSAQVEAQALMLKGKALNVTPDYSPEAEVLLSKAVKLEPELVEAWNQLGEVYWKKGDVTSAHTCFSGALTHCKNKVSLQNLSMVLRQLQTDSGDEHSRHVMDSVRQAKLAVQMDVLDGRSWYILGNAYLSLYFNTGQNPKISQQALSAYAQAEKVDRKASSNPDLHLNRATLHKYEESYGEALEGFSQAAALDPAWPEPQQREQQLLEFLSRLTSLLESKGKTKPKKLQSMLGSLRPAHLGPCGDGRYQSASGQKMTLELKPLSTLQPGVNSGTVVLGKVVFSLTTEEKVPFTFGLVDSDGPCYAVMVYNVVQSWGVLIGDSVAIPEPNLRHHQIRHKGKDYSFSSVRVETPLLLVVNGKPQNSSSQASATVASRPQCE
For the molecule B1, in assay [1], the binding entry is “binds”.

B2: HA-tagged STRAP (pCMV-HA-STRAP8-438) (protein, not shown: small tags and cut ends)
chain: EAKHVLQKLQGLVDRLYCFRDSYFETHSVEDAGRKQQDVQEEMEKTLQQMEEVLGSAQVEAQALMLKGKALNVTPDYSPEAEVLLSKAVKLEPELVEAWNQLGEVYWKKGDVTSAHTCFSGALTHCKNKVSLQNLSMVLRQLQTDSGDEHSRHVMDSVRQAKLAVQMDVLDGRSWYILGNAYLSLYFNTGQNPKISQQALSAYAQAEKVDRKASSNPDLHLNRATLHKYEESYGEALEGFSQAAALDPAWPEPQQREQQLLEFLSRLTSLLESKGKTKPKKLQSMLGSLRPAHLGPCGDGRYQSASGQKMTLELKPLSTLQPGVNSGTVVLGKVVFSLTTEEKVPFTFGLVDSDGPCYAVMVYNVVQSWGVLIGDSVAIPEPNLRHHQIRHKGKDYSFSSVRVETPLLLVVNGKPQNSSSQASATVASRPQ
With B2, the binding result in assay [2] and in assay [3] was “binds” in each case.
